PMC5415356
Changes are numbered by the printed parent chain. Numbers in names are those of the source. Results are given in words; binding and its absence hold for the method and conditions named. In cells and extracts the contact can be indirect. Some results given as binding are weak or reduced against the parent protein; the word gives no strength. For some of these results: Tags and fused reporters may be left off the sequences shown. One block for each binder: values may come before it.

Protein sequences, listed by entry. Tags and fused reporters are not part of them.
UniProt P46937: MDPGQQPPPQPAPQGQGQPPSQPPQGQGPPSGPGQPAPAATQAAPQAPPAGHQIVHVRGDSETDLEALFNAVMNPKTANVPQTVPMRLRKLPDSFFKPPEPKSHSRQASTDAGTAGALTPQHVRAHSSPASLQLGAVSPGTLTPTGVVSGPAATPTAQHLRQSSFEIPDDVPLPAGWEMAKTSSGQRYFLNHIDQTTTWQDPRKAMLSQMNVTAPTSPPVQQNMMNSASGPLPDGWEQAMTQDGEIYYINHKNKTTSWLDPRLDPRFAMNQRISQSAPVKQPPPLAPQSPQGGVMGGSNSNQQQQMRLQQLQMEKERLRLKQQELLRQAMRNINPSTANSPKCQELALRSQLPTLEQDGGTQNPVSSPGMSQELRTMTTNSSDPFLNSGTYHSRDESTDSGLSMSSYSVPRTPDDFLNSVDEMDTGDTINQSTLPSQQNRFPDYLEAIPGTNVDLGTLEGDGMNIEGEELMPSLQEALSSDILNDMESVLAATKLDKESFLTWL
UniProt P35240: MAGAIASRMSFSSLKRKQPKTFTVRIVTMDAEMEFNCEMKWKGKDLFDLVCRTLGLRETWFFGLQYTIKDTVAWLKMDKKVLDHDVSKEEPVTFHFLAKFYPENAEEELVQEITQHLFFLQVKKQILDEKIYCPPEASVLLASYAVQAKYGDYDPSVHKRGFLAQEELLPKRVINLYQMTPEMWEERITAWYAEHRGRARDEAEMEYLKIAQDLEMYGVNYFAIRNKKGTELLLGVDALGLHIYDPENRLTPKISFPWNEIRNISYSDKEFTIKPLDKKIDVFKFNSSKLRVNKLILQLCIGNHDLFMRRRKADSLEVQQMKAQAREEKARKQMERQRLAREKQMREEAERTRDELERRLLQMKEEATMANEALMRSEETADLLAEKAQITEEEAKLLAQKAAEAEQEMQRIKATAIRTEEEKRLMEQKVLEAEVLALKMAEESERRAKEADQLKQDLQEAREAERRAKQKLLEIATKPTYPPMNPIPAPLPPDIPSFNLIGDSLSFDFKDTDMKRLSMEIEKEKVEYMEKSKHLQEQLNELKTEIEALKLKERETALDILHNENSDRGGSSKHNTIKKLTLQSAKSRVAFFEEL
UniProt Q8NI35: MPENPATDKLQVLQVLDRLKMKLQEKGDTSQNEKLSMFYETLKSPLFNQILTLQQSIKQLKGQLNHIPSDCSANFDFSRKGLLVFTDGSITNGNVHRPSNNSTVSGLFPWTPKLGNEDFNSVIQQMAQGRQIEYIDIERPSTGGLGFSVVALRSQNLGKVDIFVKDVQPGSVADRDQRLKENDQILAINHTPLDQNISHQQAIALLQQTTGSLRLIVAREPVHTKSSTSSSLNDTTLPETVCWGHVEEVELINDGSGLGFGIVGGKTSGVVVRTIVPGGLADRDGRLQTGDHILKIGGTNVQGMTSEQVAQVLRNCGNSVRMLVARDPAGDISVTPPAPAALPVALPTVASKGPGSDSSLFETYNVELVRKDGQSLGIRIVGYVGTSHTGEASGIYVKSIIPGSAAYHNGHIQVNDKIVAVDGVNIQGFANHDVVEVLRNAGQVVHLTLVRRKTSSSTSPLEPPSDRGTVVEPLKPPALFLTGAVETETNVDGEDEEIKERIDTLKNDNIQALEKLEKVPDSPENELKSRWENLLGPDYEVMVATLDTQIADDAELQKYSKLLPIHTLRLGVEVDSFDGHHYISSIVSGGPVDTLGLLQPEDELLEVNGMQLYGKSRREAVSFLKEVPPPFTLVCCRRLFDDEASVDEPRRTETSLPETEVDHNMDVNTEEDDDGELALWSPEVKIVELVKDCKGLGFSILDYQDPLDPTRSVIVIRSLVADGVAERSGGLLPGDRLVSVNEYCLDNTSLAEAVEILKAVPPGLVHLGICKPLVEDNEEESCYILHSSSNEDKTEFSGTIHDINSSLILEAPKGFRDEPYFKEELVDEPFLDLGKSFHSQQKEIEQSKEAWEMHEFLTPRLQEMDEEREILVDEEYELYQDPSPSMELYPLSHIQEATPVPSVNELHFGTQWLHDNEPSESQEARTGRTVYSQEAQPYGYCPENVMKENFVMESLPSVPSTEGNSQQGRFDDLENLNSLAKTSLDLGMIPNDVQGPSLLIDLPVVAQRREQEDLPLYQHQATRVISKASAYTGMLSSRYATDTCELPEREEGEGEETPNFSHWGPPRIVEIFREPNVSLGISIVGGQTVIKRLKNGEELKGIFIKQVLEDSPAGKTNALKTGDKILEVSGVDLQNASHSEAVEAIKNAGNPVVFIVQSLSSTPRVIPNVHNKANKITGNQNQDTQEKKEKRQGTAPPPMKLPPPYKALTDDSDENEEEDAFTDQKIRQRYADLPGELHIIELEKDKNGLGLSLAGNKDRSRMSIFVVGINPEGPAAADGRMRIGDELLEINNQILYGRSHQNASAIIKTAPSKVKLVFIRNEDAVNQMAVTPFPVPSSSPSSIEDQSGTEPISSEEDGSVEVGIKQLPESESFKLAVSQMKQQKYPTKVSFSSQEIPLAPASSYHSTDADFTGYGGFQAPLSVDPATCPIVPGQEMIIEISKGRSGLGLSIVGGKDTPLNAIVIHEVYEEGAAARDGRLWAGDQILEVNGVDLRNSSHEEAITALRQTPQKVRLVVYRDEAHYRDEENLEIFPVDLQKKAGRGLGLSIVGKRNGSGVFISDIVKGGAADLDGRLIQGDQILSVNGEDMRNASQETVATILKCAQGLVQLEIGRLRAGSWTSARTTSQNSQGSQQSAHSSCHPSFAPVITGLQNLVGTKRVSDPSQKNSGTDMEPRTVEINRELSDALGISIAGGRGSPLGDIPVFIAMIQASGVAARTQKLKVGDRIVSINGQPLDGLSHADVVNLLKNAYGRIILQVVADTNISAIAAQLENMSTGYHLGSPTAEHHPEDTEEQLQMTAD

Key:
[1] = target: YAP (endogenous) (human (endogenous in HEK293)) (UniProt P46937); test: co-IP; HEK293-shAmot cells transfected with Amot-p130; IPs with antibodies to phospho-Amot (Ser176), YAP or Merlin, immunoblot
[2] = target: Merlin (endogenous) (human (endogenous in HEK293)) (UniProt P35240); test: as above
Flag-Pals1 = target: T1, Flag-Pals1 (UniProt Q8N3R9); test: co-IP; HEK293-shAmot cells co-transfected with an Amot-p130 allele (WT, S176A, S176E or PY motif mutants) and tagged partners; total RIPA lysate, IP with tag or protein antibodies overnight, immunoblot
T1 sequence: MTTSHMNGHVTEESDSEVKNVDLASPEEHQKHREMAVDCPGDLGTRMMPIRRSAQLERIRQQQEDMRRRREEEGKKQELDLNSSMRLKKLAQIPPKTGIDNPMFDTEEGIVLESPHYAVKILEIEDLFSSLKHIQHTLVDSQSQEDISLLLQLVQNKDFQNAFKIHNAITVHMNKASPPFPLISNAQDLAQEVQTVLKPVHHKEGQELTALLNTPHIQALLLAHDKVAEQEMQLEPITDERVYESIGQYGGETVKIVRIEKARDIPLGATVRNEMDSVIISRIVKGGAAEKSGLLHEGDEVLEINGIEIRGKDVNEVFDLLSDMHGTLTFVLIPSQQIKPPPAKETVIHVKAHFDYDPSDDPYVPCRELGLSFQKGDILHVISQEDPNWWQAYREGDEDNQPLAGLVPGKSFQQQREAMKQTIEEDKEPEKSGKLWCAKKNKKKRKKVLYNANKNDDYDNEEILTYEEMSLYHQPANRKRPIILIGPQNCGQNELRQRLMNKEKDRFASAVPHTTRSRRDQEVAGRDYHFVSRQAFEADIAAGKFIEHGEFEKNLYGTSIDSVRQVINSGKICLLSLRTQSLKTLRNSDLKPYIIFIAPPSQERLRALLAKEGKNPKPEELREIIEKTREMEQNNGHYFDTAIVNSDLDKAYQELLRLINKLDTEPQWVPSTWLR

Flag-tagged Patj = Flag-tagged Patj (UniProt Q8NI35); test: as above

- binding [1]: binds
- binding [2]: binds
B1: Amot-p130 phosphorylated at S176 (protein, UniProt Q8VHG2 1-1126)
chain: MRSSDDQPSGGTTVLQRLLQEQLRYGNPSENRSLLAIHQQATGNSSPFSTGSGNQGPQNDVLSSQDHHQQQLVAHPARQEPQGQEIQSENGVMEKQLSPRMQNNEELPTYEEAKVQSQYFRGQQHASVGAAFYVTGVTNQKMRTEGRPSVQRLTPGKMHQDEGLRDLKQGHVRSLSERLMQMSLATSGVKAHPPVTSAPLSPPQPNDLYKNATSSSEFYKAQGPPPSQHSLKGMEHRGPPPEYPFKGVPSQSVVCKSQEPGHFYSEHRLNQPGRTEGQLMRYQHPPEYGAARATQDISSLSLSARNSQPHSPTSSLTAGASSLPLLQSPPSTRLPPGQHLVSNQGDHSAHLSRHQQHLLSSQSHQGDHYRHAQASLTSAQQQPGEAYSAMPRAQQSASYQPMPADPFAMVSRAQQMVEILSDENRNLRQELDGCYEKVARLQKVETEIQRVSEAYENLVKSSSKREALEKAMRNKLEGEIRRMHDFNRDLRDRLETANKQLAEKEYEGSEDTRKTISQLFAKHKENQREKEKLEAELATARSTNEDQRRHIEIRDQALSNAQAKVVKLEEELKKKQVYVDKVEKMQQALVQLQAACEKREQLEHRLRTRLERELESLRIQQRQGNSQPTNASEYNAAALMELLREKEERILALEADMTKWEQKYLEENVMRHFALDAAATVAAQRDTTVISHSPNTSYDTALEARIQKEEEEILMANKRCLDMEGRIKTLHAQIIEKDAMIKVLQQRSRKEPSKTEQLSSMRPAKSLMSISNAGSGLLAHSSTLTGAPIMEEKRDDKSWKGSLGVLLGGDYRVEPVPSTPSPVPPSTPLLSAHSKTGSRDCSTQTERGPESTKTAAVTPISAPMAGPVAAAAPAAAINATAATNTATAATNTTIMVAAAPVAVAAVAAPAAAAATPSPANAAALAAAAAPATSVSAATSVSAANSISPAAPVAPAAVVPPAAPVSPAAAVQIPAAASLTPATVSPTAATATAAVAAATTAAITAAAAAATTAIQVAPATSAPVPSPASIPAPATAQASAPTPTQASTPAPTEPPSPVPTPTPALVQTEGPANPGASSGPRRLSTPNLMCNPDKPDAPAFHSSTLERKTPIQILGQEPDAEMVEYLI
modifications: phosphoserine at 176

- binding (Flag-Pals1): binds
- binding (Flag-tagged Patj): binds
B2: HA-Amot-p130^S176E (protein, UniProt Q8VHG2 1-1126)
chain: B1 chain with S176E
